These are yes or no findings as the source states them, for the method shown. Binding calls can cover weak binding; strength is not graded here. Sequences can lack the tags named with a protein.
Biological target: human fibronectin (human)
Experiment: ELISA; human glycoproteins coated on 96-well plates (5 ug/mL in 75 mM sodium carbonate buffer pH 9.6, 18 h at 4°C); blocked with 3% fish gelatin; rPepO (10 to 50 ug/mL) or rCnmA (0.125 to 2 ug/mL) in 50 mM HEPES pH 7.4, 150 mM NaCl, 2 mM CaCl2, 50 ug/mL BSA, 2 h at 37°C; bound protein detected with rabbit antiserum and peroxidase conjugate, A450 nm; wells with 1% BSA as control; both purified

B1: His-tagged PepO recombinant protein (rPepO), endopeptidase O of Streptococcus mutans (protein, UniProt I6L8Y4 1-631)
chain: MVRLQDDFYNAVNGQWEEAAVIPDDKPRTGGFSDLADDIEDLMLETTDKWLDGKDVPDDSILQNFVKFHRQVADYDAREETGVKPVLPLIEEYKSLTSFADFASNIATYEMAGKPNELPFGVAPDFMNAQMNVLWAEAPNLILPDTTYYAEGNDKGKELLAKWRTMQEELLPKFGFEEAEIKDLLDKVLTLDAKLAQYVLSSEESSEYVKLYHPYDWADFTKLTPELPLDAIFTQILGQKPDKVIVPEERFWTNFAAEFYSEKNWPFLKATLVLAAASSYNSYLTDDIRILSGSYNRALSGTPQAMGKKKAAFYLAQGPYNQALGLWYAGEKFSPEAKKDVEAKVATMIEVYKERLHKTDWLAQETRNKAITKLNVITPHIGYPEQLPKTYAQKIIDDNLSLVENAQNLAKISIAYNWSKWNQPVDRSEWHMPAHMVNAYYDPQQNQIVFPAAILQAPFYSLEQSSSANYGGIGAVIAHEISHAFDTNGASFDENGSLNNWWTDEDYAAFKKRTDRVVEQFEGLDSYGAKVNGQLTVSENVADLGGLACALEAAKREADFSVRDFFINFATIWRMKARDEYMQMLASIDVHAPAKWRTNVTITNFDEFHQEFAVKEGDGMWRDEDKRVIIW
Question: How did the binding turn out when B1 was run?
Answer: The binding was “binds”.
